Source: patent US10597433B2, “Peptides and combination of peptides for use in immunotherapy against small cell lung cancer and other cancers” (Immatics Biotechnologies GmbH, priority 2015, dated 2020)

Assays:
[1] = tested on: other cancer tissues and cancer cell lines; assay: Additional LC-MS detection of the peptide on other cancer samples and cell lines (FIG. 1A-1D); design: species or system human
[2] = tested on: small cell lung cancer samples; assay: Identification and label-free LC-MS quantitation of HLA-presented peptides on tumor versus normal tissues (presentation profile/score); design: species or system human; key: very highly over-presented on tumors compared to a panel of normal tissues (+++); highly over-presented on tumors compared to a panel of normal tissues (++); over-presented on tumors compared to a panel of normal tissues (+); conditions: small cell lung cancer tumors compared to a panel of normal tissues

| Substance | Peptide Presentation (presentation score) [2] | also measured |
| --- | --- | --- |
| GLLEVQVEV (listed as Homo sapiens) [SEQ ID NO: 40] |  | peptide detected on samples (positive/measured) ([1]; ovarian cancers): 1/20; peptide detected on samples (positive/measured) ([1]; pancreatic cancer cell lines): 1/20 |
| 50 (FLLSQIVAL; listed as Homo sapiens) [compound 50] | +++ |  |
| GLDPTQFRV (listed as Homo sapiens) [SEQ ID NO: 39] |  | peptide detected on samples (positive/measured) ([1]; Non-Hodgkin lymphomas): 1/16; peptide detected on samples (positive/measured) ([1]; ovarian cancers): 1/20; peptide detected on samples (positive/measured) ([1]; pancreatic cancer cell lines): 1/20; peptide detected on samples (positive/measured) ([1]; urinary bladder cancer): 1/20 |
| 1 (AMLEEVNYI; listed as Homo sapiens) [compound 1] | +++ |  |
| 95 (ALYSKGILL; listed as Homo sapiens) [compound 95] | + |  |
| 3 (VLAEIDPKQLV; listed as Homo sapiens) [compound 3] | +++ |  |
| 119 (SLIDDNNEINL; listed as Homo sapiens) [compound 119] | + |  |
| 75 (SLDLHVPSL; listed as Homo sapiens) [compound 75] | +++ |  |
| 100 (VADPETRTV; listed as Homo sapiens) [compound 100] | + |  |
| 19 (VLLTTAVEV; listed as Homo sapiens) [compound 19] | + |  |
| 11 (KLFAIPILL; listed as Homo sapiens) [compound 11] | +++ |  |
| 74 (FLDSLSPSV; listed as Homo sapiens) [compound 74] | +++ |  |
| 76 (VLTTVMITV; listed as Homo sapiens) [compound 76] | +++ |  |
| 55 (LLIADNPQL; listed as Homo sapiens) [compound 55] | +++ |  |
| 67 (MLYDIVPVV; listed as Homo sapiens) [compound 67] | + |  |
| 61 (YQAPYFLTV; listed as Homo sapiens) [compound 61] | +++ |  |
| 79 (RLLEPAQVQQL; listed as Homo sapiens) [compound 79] | ++ |  |
| 80 (ILMDPSPEYA; listed as Homo sapiens) [compound 80] | +++ |  |
| 64 (VLFHQLQEI; listed as Homo sapiens) [compound 64] | + |  |
| 46 (ALWVAVPKA; listed as Homo sapiens) [compound 46] | +++ |  |
| 29 (NLISQLTTV; listed as Homo sapiens) [compound 29] | ++ |  |
| 51 (ILDEAGVKYFL; listed as Homo sapiens) [compound 51] | +++ |  |
| 17 (SLMLVTVEL; listed as Homo sapiens) [compound 17] | + |  |

| Substance | Peptide Presentation (presentation score) [2] | also measured |
| --- | --- | --- |
| 83 (KLLEIDIDGV; listed as Homo sapiens) [compound 83] | + |  |
| 82 (ALSSVIKEL; listed as Homo sapiens) [compound 82] | + |  |
| 70 (TLLWKLVEV; listed as Homo sapiens) [compound 70] | +++ |  |
| 35 (FMGDVFINV; listed as Homo sapiens) [compound 35] | + |  |
| 49 (RLALNTPKV; listed as Homo sapiens) [compound 49] | ++ |  |
| 37 (SLFYNELHYV; listed as Homo sapiens) [compound 37] | + |  |
| 56 (SLFSQMGSQYEL; listed as Homo sapiens) [compound 56] | +++ |  |
| 125 (LLSEPSLLRTV; listed as Homo sapiens) [compound 125] | +++ |  |
| 4 (GLLDPGMLVNI; listed as Homo sapiens) [compound 4] | + |  |
| 42 (GLLEDERALQL; listed as Homo sapiens) [compound 42] | +++ |  |
| 60 (VVSGATETL; listed as Homo sapiens) [compound 60] | +++ |  |
| 39 (GLDPTQFRV; listed as Homo sapiens) [compound 39] | +++ |  |
| 101 (AMNSQILEV; listed as Homo sapiens) [compound 101] | + |  |
| 6 (SIMDYVVFV; listed as Homo sapiens) [compound 6] | ++ |  |
| 44 (ALIVGIPSV; listed as Homo sapiens) [compound 44] | +++ |  |
| 118 (KLPSFLANV; listed as Homo sapiens) [compound 118] | +++ |  |
| 117 (FLLDSAPLNV; listed as Homo sapiens) [compound 117] | + |  |
| 112 (LLLPGVIKTV; listed as Homo sapiens) [compound 112] | +++ |  |
| 52 (ILASFMLTGV; listed as Homo sapiens) [compound 52] | +++ |  |
| AMLEEVNYI (listed as Homo sapiens) [SEQ ID NO: 1] |  | peptide detected on samples (positive/measured) ([1]; Non-Hodgkin lymphomas): 4/16; peptide detected on samples (positive/measured) ([1]; chronic lymphocytic leukemias): 2/17; peptide detected on samples (positive/measured) ([1]; colorectal cancer): 1/27; peptide detected on samples (positive/measured) ([1]; pancreatic cancer cell lines): 1/20; peptide detected on samples (positive/measured) ([1]; pancreatic cancers): 3/19 |
| 124 (SLITDLQTI; listed as Homo sapiens) [compound 124] | ++ |  |
| 63 (LLMSTENEL; listed as Homo sapiens) [compound 63] | ++ |  |
| 8 (VLIDDSQSIIFI; listed as Homo sapiens) [compound 8] | +++ |  |

| Substance | Peptide Presentation (presentation score) [2] | also measured |
| --- | --- | --- |
| 66 (YLNLISTSV; listed as Homo sapiens) [compound 66] | +++ |  |
| 98 (ALVDHLNVGV; listed as Homo sapiens) [compound 98] | + |  |
| 110 (GLTETGLYRI; listed as Homo sapiens) [compound 110] | +++ |  |
| 16 (VILDLPLVI; listed as Homo sapiens) [compound 16] | +++ |  |
| 81 (LLAEIGAVTLV; listed as Homo sapiens) [compound 81] | ++ |  |
| 107 (AMYGTKLETI; listed as Homo sapiens) [compound 107] | + |  |
| 24 (FLMEEVHMI; listed as Homo sapiens) [compound 24] | + |  |
| 10 (ILAAGFDGM; listed as Homo sapiens) [compound 10] | + |  |
| 88 (TLHRETFYL; listed as Homo sapiens) [compound 88] | +++ |  |
| 87 (LLQNNLPAV; listed as Homo sapiens) [compound 87] | + |  |
| VLAEIDPKQLV (listed as Homo sapiens) [SEQ ID NO: 3] |  | peptide detected on samples (positive/measured) ([1]; esophageal cancer): 1/20; peptide detected on samples (positive/measured) ([1]; liver cancers): 2/16; peptide detected on samples (positive/measured) ([1]; ovarian cancers): 2/20 |
| 26 (KMLDEAVFQV; listed as Homo sapiens) [compound 26] | + |  |
| 90 (TLVDNISTMAL; listed as Homo sapiens) [compound 90] | + |  |
| 43 (YLWSEVFSM; listed as Homo sapiens) [compound 43] | +++ |  |
| 111 (FLPEAPAEL; listed as Homo sapiens) [compound 111] | +++ |  |
| 85 (FAYDGKDYLTL; listed as Homo sapiens) [compound 85] | + |  |
| 23 (YQIDTVINL; listed as Homo sapiens) [compound 23] | + |  |
| 78 (RIIDPEDLKALL; listed as Homo sapiens) [compound 78] | +++ |  |
| 9 (AAAPGEALHTA; listed as Homo sapiens) [compound 9] | + |  |
| 59 (VLLSGLTEV; listed as Homo sapiens) [compound 59] | +++ |  |
| 15 (SLLTAISEV; listed as Homo sapiens) [compound 15] | + |  |
